PubChem BioAssay AID1259254 | NCATS | 2017
Assay: 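Finding genes that stop cells copying their DNA twice in one cycle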 (primary screen). Cells: human HCT116 colorectal cancer cells. Reagents: single siRNA against human genes. Timing: 3 days. Read-out: 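Nuclei stained with Hoechst and imaged; cell-cycle phase assigned by DNA content; G2 share scaled per plate, non-targeting siRNA 0%, GMNN siRNA 100%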. Reading the numbers: G2 robust z-score and G2 cells, % of GMNN control: higher = more G2 cells, more excess DNA replication. Active means: 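An siRNA counts as active if its G2 robust z-score lies at least 5 MADs above the screen median; here such calls match roughly 38% of GMNN control or more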.
This is one part, drawn at random, of about 59,000 reagents tested. About 1,550 of them (2.6%) were called active. 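G2 share is only a proxy for re-replication; each gene was hit by three separate siRNAs, and active genes were retested.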 Reagents against one gene are numbered here. Not all columns of the deposit are shown. Not given: the amount of reagent.

Target gene	reagent no.	G2 robust z-score	G2 cells, % of GMNN control	Call
FUT4	1	0.195	4.34	inactive
FUT4	2	-1.25	-5.82	inactive
FUT4	3	-0.686	-1.86	inactive
UROD	1	0.746	8.21	inactive
UROD	2	-0.63	-1.47	inactive
UROD	3	0.96	9.72	inactive
LBX2	1	-0.389	0.232	inactive
LBX2	2	0.576	7.02	inactive
LBX2	3	-0.555	-0.936	inactive
FCF1	1	3.19	25.4	inactive
FCF1	2	-0.583	-1.14	inactive
FCF1	3	2.86	23.1	inactive
SFT2D3	1	-0.703	-1.98	inactive
SFT2D3	2	0.226	4.56	inactive
SFT2D3	3	-0.235	1.32	inactive
GNAS	1	4.42	34.1	inactive
GNAS	2	0.138	3.94	inactive
GNAS	3	0.0645	3.42	inactive
SMTNL2	1	-0.962	-3.8	inactive
SMTNL2	2	0.841	8.89	inactive
SMTNL2	3	1.58	14.1	inactive
TRIML1	1	0.021	3.12	inactive
TRIML1	2	-0.895	-3.33	inactive
TRIML1	3	-0.915	-3.47	inactive
DENND2D	1	0.413	5.87	inactive
DENND2D	2	3.68	28.8	inactive
DENND2D	3	3.02	24.2	inactive
SLC11A2	1	-1.81	-9.8	inactive
SLC11A2	2	-0.904	-3.39	inactive
SLC11A2	3	1.12	10.8	inactive
TRAPPC6B	1	-0.149	1.92	inactive
TRAPPC6B	2	0.861	9.02	inactive
TRAPPC6B	3	-0.117	2.14	inactive
STARD7-AS1	1	-0.329	0.651	inactive
STARD7-AS1	2	-0.912	-3.45	inactive
STARD7-AS1	3	-0.558	-0.959	inactive
CSTL1	1	0.488	6.4	inactive
CSTL1	2	1.85	16	inactive
CSTL1	3	0.197	4.36	inactive
RAB42	1	0.256	4.77	inactive
RAB42	2	0.773	8.4	inactive
RAB42	3	-0.573	-1.06	inactive
MFN1	1	1.41	12.9	inactive
MFN1	2	2.16	18.1	inactive
MFN1	3	-0.764	-2.41	inactive
EFCAB6	1	-0.655	-1.64	inactive
EFCAB6	2	0.652	7.55	inactive
EFCAB6	3	0.681	7.76	inactive
LOC105372990	1	2.06	17.5	inactive
LOC105372990	2	-0.887	-3.27	inactive
LOC105372990	3	0.682	7.76	inactive
TJP1	1	-0.117	2.14	inactive
TJP1	2	0.111	3.75	inactive
TJP1	3	0.852	8.96	inactive
ACAD8	1	3.63	28.5	inactive
ACAD8	2	0.175	4.2	inactive
ACAD8	3	-0.492	-0.497	inactive
FOXD2	1	1.5	13.5	inactive
FOXD2	2	-0.602	-1.27	inactive
FOXD2	3	-0.506	-0.594	inactive
MSX2	1	1.36	12.6	inactive
MSX2	2	-0.981	-3.93	inactive
MSX2	3	0.347	5.41	inactive
NAA25	1	-1.58	-8.13	inactive
NAA25	2	-0.412	0.0706	inactive
NAA25	3	-0.33	0.648	inactive
LCA5L	1	0.692	7.83	inactive
LCA5L	2	-0.368	0.379	inactive
LCA5L	3	-0.373	0.342	inactive
